This note sets out measurements from article PMC4551923.

Results are given in words; binding and its absence hold for the method and conditions named. Some binding calls cover weakened binding; strength is not graded here.

The target of this assay is T1, Rad23 (yeast (endogenous in BY4742)) (UniProt P32628).
T1 sequence: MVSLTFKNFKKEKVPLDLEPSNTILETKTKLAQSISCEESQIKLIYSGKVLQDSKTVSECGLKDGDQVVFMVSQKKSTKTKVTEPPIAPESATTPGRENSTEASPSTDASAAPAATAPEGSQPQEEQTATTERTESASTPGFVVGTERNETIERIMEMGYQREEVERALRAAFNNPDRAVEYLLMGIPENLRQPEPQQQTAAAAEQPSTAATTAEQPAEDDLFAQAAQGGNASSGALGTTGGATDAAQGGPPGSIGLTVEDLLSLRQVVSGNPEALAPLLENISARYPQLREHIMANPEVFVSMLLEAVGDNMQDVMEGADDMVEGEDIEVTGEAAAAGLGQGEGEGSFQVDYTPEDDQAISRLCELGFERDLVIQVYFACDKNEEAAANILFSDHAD
Put plainly: double ChIP (sequential chromatin immunoprecipitation); formaldehyde cross-linked, sonicated chromatin extracts of unirradiated cells; first IP with Rad23 antibodies, second IP with Rad4 antibodies; read out by qPCR of the DDR2 and DUN1 promoters. Background: In qPCR the cycle at which signal appears reflects the starting amount.

B1: Rad4 (protein, UniProt P14736 1-754)
chain: MNEDLPKEYFELIRKALNEKEAEKAPLSRRRRVRRKNQPLPDAKKKFKTGLNELPRESVVTVNLDSSDDGVVTVPTDDSVEEIQSSEEDYDSEEFEDVTDGNEVAGVEDISVEIKPSSKRNSDARRTSRNVCSNEERKRRKYFHMLYLVCLMVHGFIRNEWINSKRLSRKLSNLVPEKVFELLHPQKDEELPLRSTRKLLDGLKKCMELWQKHWKITKKYDNVGLYMRTWKEIEMSANNKRKFKTLKRSDFLRAVSKGHGDPDISVQGFVAMLRACNVNARLIMSCQPPDFTNMKIDTSLNGNNAYKDMVKYPIFWCEVWDKFSKKWITVDPVNLKTIEQVRLHSKLAPKGVACCERNMLRYVIAYDRKYGCRDVTRRYAQWMNSKVRKRRITKDDFGEKWFRKVITALHHRKRTKIDDYEDQYFFQRDESEGIPDSVQDLKNHPYYVLEQDIKQTQIVKPGCKECGYLKVHGKVGKVLKVYAKRDIADLKSARQWYMNGRILKTGSRCKKVIKRTVGRPKGEAEEEDERLYSFEDTELYIPPLASASGEITKNTFGNIEVFAPTMIPGNCCLVENPVAIKAARFLGVEFAPAVTSFKFERGSTVKPVLSGIVVAKWLREAIETAIDGIEFIQEDDNRKEHLLGALESWNTLLLKLRIRSKLNSTYGKIAEEEPNVTKEQNIADNHDNTETFMGGGFLPGIANHEARPYSEPSEPEDSLDYVSVDKAEESATDDDVGEDYSDFMKELEMSEESD
As to B1, the binding result is reported as “binds”.
